{
  "sequences": {"note": "Sequences of proteins named here, by UniProt entry; tags and fusion partners are left off. A change or cut given only in a name is not applied to a line headed by its entry. A line that says so, or that is headed by a name, gives the form on record, which may keep a tag or linker.", "vascular endothelial growth factor (VEGF) (P15692-4, form named)": "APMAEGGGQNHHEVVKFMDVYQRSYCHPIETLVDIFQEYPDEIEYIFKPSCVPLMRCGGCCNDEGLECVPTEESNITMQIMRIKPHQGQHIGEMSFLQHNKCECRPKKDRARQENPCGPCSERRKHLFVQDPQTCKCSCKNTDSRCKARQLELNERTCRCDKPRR"},
  "source": "patent US20090035317A1",
  "about": "“Peptides binding to vascular endothelial growth factor” (priority 2007, published 2009)",
  "key": {"[1]": {"target": "T1, vascular endothelial growth factor (VEGF) (UniProt P15692-4 27-191, limits assumed, biotinylated)", "T1 construct": "Soluble biotinylated VEGF used to label cells that display the peptides; also called biotinylated VEGF", "assay": "flow cytometry, displayed peptide labeled with 10-nM VEGF, off-rate"}, "[2]": {"target": "T1, vascular endothelial growth factor …", "assay": "bacterial display, MACS and FACS sorting with VEGF"}, "[3]": {"target": "T1, vascular endothelial growth factor …", "assay": "flow cytometry, displayed peptide, dissociation of VEGF"}},
  "note": "No constants are given. Whether binding was seen depends on the method and setting. Some results given as binding are weak or reduced against the parent protein; the word gives no strength.",
  "data": [
    {"binder": "GPGWWLWDWDNLGARRGGL (peptide, not shown: large carriers)", "note": "[L2.F3A.10]", "values": [
      {"measurement": "binding", "setting": "[1]", "value": "binds"},
      {"measurement": "binding", "setting": "[2]", "value": "binds"}
    ]},
    {"binder": "NFGYGKWEWDYGKWLEKVG (not shown: CPXopt bacterial display scaffold (carrier))", "note": "[L2.F4.04]", "values": [
      {"measurement": "binding", "setting": "[1]", "value": "binds"},
      {"measurement": "binding", "setting": "[3]", "value": "binds"},
      {"measurement": "binding", "setting": "[2]", "value": "binds"}
    ]}
  ]
}
